# Assay results as given in the supplement of paper PMC8728848.
# The other results are listed elsewhere or left out.
# B1: Agalectin (Anopheles gambiae) (protein)
# chain: MSNRPFTAKFPRYPENGDEVFIRGKLKDDAKSFSVNFCLPRPAQVAEHQTPPYIALHFKTIYDERDDTSRVVLNWKNLQWQQEEVLDNYWHVDRSQTFRVVFRLHEDCIKVFVNSVDHPPDYQFPVQLPLDQIESIELWDDVEHVEEISFRYDNGNSY
# Columns and labels:
# Assay in all cases: glycan array binding signal (z-score within array); higher = stronger binding
# Conditions in all cases: glycan notation: IUPAC condensed, linker removed
# [1] = target: Fuc(a1-2)[GalNAc(a1-3)]Gal(b1-3)GlcNAc(b1-6)GalNAc
# Outline: (§1)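 Glycan array data were curated from 3228 arrays in the Consortium for Functional Glycomics database and kept only where the protein sequence was available. Glycan names were converted to IUPAC-condensed notation, and columns mapping to the same glycan were averaged. The binding signal is a within-array Z-score, averaged across arrays of the same protein sequence at different concentrations or buffers and across linkers. Negative Z-scores can be read as non-binding.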
# [2] = target: Fuc(a1-2)[GalNAc(a1-3)]Gal(b1-4)Glc
# Outline: as §1
# [3] = target: Fuc(a1-2)[GalNAc(a1-3)]Gal(b1-4)GlcNAc
# Outline: as §1
# [4] = target: Fuc(a1-2)[GalNAc(a1-3)]Gal(b1-4)GlcNAc(b1-2)Man
# Outline: as §1
# [5] = target: Fuc(a1-2)[GalNAc(a1-3)]Gal(b1-4)GlcNAc(b1-2)Man(a1-3)[Fuc(a1-2)[GalNAc(a1-3)]Gal(b1-4)GlcNAc(b1-2)Man(a1-6)]Man(b1-4)GlcNAc(b1-4)GlcNAc
# Outline: as §1
# [6] = target: Fuc(a1-2)[GalNAc(a1-3)]Gal(b1-4)GlcNAc(b1-2)Man(a1-3)[Fuc(a1-2)[GalNAc(a1-3)]Gal(b1-4)GlcNAc(b1-2)Man(a1-6)]Man(b1-4)GlcNAc(b1-4)[Fuc(a1-6)]GlcNAc
# Outline: as §1
# [7] = target: Fuc(a1-2)[GalNAc(a1-3)]Gal(b1-4)GlcNAc(b1-3)Gal(b1-4)GlcNAc
# Outline: as §1
# [8] = target: Fuc(a1-2)[GalNAc(a1-3)]Gal(b1-4)GlcNAc(b1-3)Gal(b1-4)GlcNAc(b1-3)Gal(b1-4)GlcNAc
# Outline: as §1
# [9] = target: Fuc(a1-2)[GalNAc(a1-3)]Gal(b1-4)GlcNAc(b1-3)GalNAc
# Outline: as §1
# [10] = target: Fuc(a1-2)[GalNAc(a1-3)]Gal(b1-4)GlcNAc(b1-3)[Fuc(a1-2)[GalNAc(a1-3)]Gal(b1-4)GlcNAc(b1-6)]GalNAc
# Outline: as §1
# [11] = target: Fuc(a1-2)[GalNAc(a1-3)]Gal(b1-4)GlcNAc(b1-6)GalNAc
# Outline: as §1
# [12] = target: Fuc(a1-2)[GalNAc(a1-3)]Gal(b1-4)[Fuc(a1-3)]GlcNAc
# Outline: as §1
# [13] = target: Fuc(a1-2)[GalNAc(a1-3)]Gal(b1-4)[Fuc(a1-3)]GlcNAc(b1-3)GalNAc
# Outline: as §1
# [14] = target: Fuc(a1-2)[GalNAc(a1-4)]Gal(b1-4)GlcNAc
# Outline: as §1
# [15] = target: Fuc(a1-2)[GalNAc(b1-3)]Gal
# Outline: as §1
# Fuc(a1-3)GlcNAc = target: Fuc(a1-3)GlcNAc
# Outline: as §1
# [16] = target: Fuc(a1-3)[Gal(b1-4)]Glc6S
# Outline: as §1
# [17] = target: Fuc(a1-3)[Gal(b1-4)]GlcNAc
# Outline: as §1
# [18] = target: Fuc(a1-3)[Gal(b1-4)]GlcNAc(b1-2)Man
# Outline: as §1
# [19] = target: Fuc(a1-3)[Gal(b1-4)]GlcNAc(b1-2)Man(a1-3)[Fuc(a1-3)[Gal(b1-4)]GlcNAc(b1-2)Man(a1-6)]Man(b1-4)GlcNAc(b1-4)GlcNAc
# Outline: as §1
# [20] = target: Fuc(a1-3)[Gal(b1-4)]GlcNAc(b1-2)Man(a1-3)[Fuc(a1-3)[Gal(b1-4)]GlcNAc(b1-2)Man(a1-6)]Man(b1-4)GlcNAc(b1-4)[Fuc(a1-6)]GlcNAc
# Outline: as §1
# [21] = target: Fuc(a1-3)[Gal(b1-4)]GlcNAc(b1-3)Gal(b1-3)[Fuc(a1-4)]GlcNAc
# Outline: as §1
# [22] = target: Fuc(a1-3)[Gal(b1-4)]GlcNAc(b1-3)Gal(b1-4)[Fuc(a1-3)]GlcNAc
# Outline: as §1
# [23] = target: Fuc(a1-3)[Gal(b1-4)]GlcNAc(b1-3)Gal(b1-4)[Fuc(a1-3)]GlcNAc(b1-3)Gal(b1-4)[Fuc(a1-3)]GlcNAc
# Outline: as §1
# [24] = target: Fuc(a1-3)[Gal(b1-4)]GlcNAc(b1-3)GalNAc
# Outline: as §1
# [25] = target: Fuc(a1-3)[Gal(b1-4)]GlcNAc(b1-6)GalNAc
# Outline: as §1
# [26] = target: Fuc(a1-3)[Gal(b1-4)]GlcNAc(b1-6)[Gal(b1-3)GlcNAc(b1-3)]Gal(b1-4)Glc
# Outline: as §1
# [27] = target: Fuc(a1-3)[Gal(b1-4)]GlcNAc6S
# Outline: as §1
# [28] = target: Fuc(a1-3)[Gal3S(b1-4)]Glc
# Outline: as §1
# [29] = target: Fuc(a1-3)[Gal3S(b1-4)]GlcNAc
# Outline: as §1
# [30] = target: Fuc(a1-3)[Gal3S(b1-4)]GlcNAc6S
# Outline: as §1
# [31] = target: Fuc(a1-3)[GalNAc(b1-4)]GlcNAc
# Outline: as §1
# [32] = target: Fuc(a1-3)[GalNAc(b1-4)]GlcNAc6S
# Outline: as §1
# Fuc(a1-4)GlcNAc = target: Fuc(a1-4)GlcNAc
# Outline: as §1
# Fuc(b1-3)GlcNAc = target: Fuc(b1-3)GlcNAc
# Outline: as §1
# Gal(a1-2)Gal = target: Gal(a1-2)Gal
# Outline: as §1
# Gal(a1-3)Gal = target: Gal(a1-3)Gal
# Outline: as §1
# Gal(a1-3)Gal(b1-3)GlcNAc = target: Gal(a1-3)Gal(b1-3)GlcNAc
# Outline: as §1
# [33] = target: Gal(a1-3)Gal(b1-3)GlcNAc(b1-2)Man
# Outline: as §1
# [34] = target: Gal(a1-3)Gal(b1-3)GlcNAc(b1-2)Man(a1-3)[Gal(a1-3)Gal(b1-3)GlcNAc(b1-2)Man(a1-6)]Man(b1-4)GlcNAc(b1-4)GlcNAc
# Outline: as §1
# [35] = target: Gal(a1-3)Gal(b1-3)GlcNAc(b1-3)GalNAc
# Outline: as §1
# [36] = target: Gal(a1-3)Gal(b1-3)GlcNAc(b1-6)GalNAc
# Outline: as §1
# [37] = target: Gal(a1-3)Gal(b1-3)[Fuc(a1-4)]GlcNAc(b1-2)Man(a1-3)[Gal(a1-3)Gal(b1-3)[Fuc(a1-4)]GlcNAc(b1-2)Man(a1-6)]Man(b1-4)GlcNAc(b1-4)GlcNAc
# Outline: as §1
# Gal(a1-3)Gal(b1-4)Glc = target: Gal(a1-3)Gal(b1-4)Glc
# Outline: as §1
# Gal(a1-3)Gal(b1-4)GlcNAc = target: Gal(a1-3)Gal(b1-4)GlcNAc
# Outline: as §1
binder,measurement,setting,value
B1,glycan array binding signal (z-score),[1],-1.13
same,glycan array binding signal (z-score),[2],0.362
same,glycan array binding signal (z-score),[3],-0.466
same,glycan array binding signal (z-score),[4],-0.074
same,glycan array binding signal (z-score),[5],0.622
same,glycan array binding signal (z-score),[6],-1.43
same,glycan array binding signal (z-score),[7],-0.278
same,glycan array binding signal (z-score),[8],1.69
same,glycan array binding signal (z-score),[9],-1.27
same,glycan array binding signal (z-score),[10],-0.409
same,glycan array binding signal (z-score),[11],0.074
same,glycan array binding signal (z-score),[12],2.7
same,glycan array binding signal (z-score),[13],-0.12
same,glycan array binding signal (z-score),[14],0.035
same,glycan array binding signal (z-score),[15],-0.572
same,glycan array binding signal (z-score),Fuc(a1-3)GlcNAc,-1.07
same,glycan array binding signal (z-score),[16],-0.632
same,glycan array binding signal (z-score),[17],-0.52
same,glycan array binding signal (z-score),[18],0.831
same,glycan array binding signal (z-score),[19],-1.7
same,glycan array binding signal (z-score),[20],0.571
same,glycan array binding signal (z-score),[21],-1.08
same,glycan array binding signal (z-score),[22],0.34
same,glycan array binding signal (z-score),[23],-0.383
same,glycan array binding signal (z-score),[24],-0.517
same,glycan array binding signal (z-score),[25],-0.114
same,glycan array binding signal (z-score),[26],-0.398
same,glycan array binding signal (z-score),[27],0.34
same,glycan array binding signal (z-score),[28],-0.516
same,glycan array binding signal (z-score),[29],-0.811
same,glycan array binding signal (z-score),[30],-0.759
same,glycan array binding signal (z-score),[31],0.834
same,glycan array binding signal (z-score),[32],0.253
same,glycan array binding signal (z-score),Fuc(a1-4)GlcNAc,-0.626
same,glycan array binding signal (z-score),Fuc(b1-3)GlcNAc,-0.693
same,glycan array binding signal (z-score),Gal(a1-2)Gal,0.111
same,glycan array binding signal (z-score),Gal(a1-3)Gal,0.541
same,glycan array binding signal (z-score),Gal(a1-3)Gal(b1-3)GlcNAc,-0.616
same,glycan array binding signal (z-score),[33],-0.656
same,glycan array binding signal (z-score),[34],1.78
same,glycan array binding signal (z-score),[35],-0.548
same,glycan array binding signal (z-score),[36],-0.394
same,glycan array binding signal (z-score),[37],1.21
same,glycan array binding signal (z-score),Gal(a1-3)Gal(b1-4)Glc,-0.718
same,glycan array binding signal (z-score),Gal(a1-3)Gal(b1-4)GlcNAc,-0.703

# Quoted at random: 2 entries already listed, in no set order.
binder,measurement,setting,value
B1,glycan array binding signal (z-score),[10],-0.409
same,glycan array binding signal (z-score),[31],0.834
